Test results reported in patent publication US20090191217A1 (published 2009).
Positions count from the first letter of the chain named. Results are given in words; binding and its absence hold for the method and conditions named. Some results given as binding are weak or reduced against the parent protein; the word gives no strength.

Sequences of proteins named here, by UniProt entry; tags and fusion partners are left off. Residues count along the entry.
UniProt P14778, residues 18-332: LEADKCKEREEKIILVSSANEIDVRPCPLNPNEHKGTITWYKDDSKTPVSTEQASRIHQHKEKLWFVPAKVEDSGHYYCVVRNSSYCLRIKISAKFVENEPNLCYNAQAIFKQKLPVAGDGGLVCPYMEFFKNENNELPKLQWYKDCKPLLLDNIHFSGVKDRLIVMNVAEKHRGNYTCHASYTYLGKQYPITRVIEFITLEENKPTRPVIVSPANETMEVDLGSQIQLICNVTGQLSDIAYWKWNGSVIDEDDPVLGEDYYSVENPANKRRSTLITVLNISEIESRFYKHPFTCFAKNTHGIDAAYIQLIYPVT

B1: DOM4-130 (protein)
VL: DIQMTQSPSSLSASVGDRVTITCRASQDIYLNLNWYQQKPGKAPKLLIYGTSNLQSGVPSRFSGSGSGTDFTLTISSLQPEDFATYYCQPSFLYPYTFGQGTKVEIRR
B2: DOM4-122 (protein)
VL: DIQMTQSPSSLSASVGDRVTITCRASQNIDRELRWYQQKPGKAPMLLIYHASRLQSGVPSRFSGSGSGTDFTLTISSLQPEDFATYYCQQYANWPLTFGQGTKVEIKR
B3: DOM4-129 (protein)
VL: B2 VL with A92H, N93D, W94F
B4: DOM4-130-3 (other)
VL: B1 VL with N34D, L93Y, Y94F
B5: DOM4-130-46 (other)
VL: B1 VL with N34D, Y49N, G50F, T51G, N53E, L93Y, Y94F
B6: DOM4-129-1 (other)
VL: B2 VL with L46F, S56R, A92H, N93D, W94F
B7: DOM4-122-6 (other)
VL: B2 VL with N28W, D30G, L46F, A92H, N93G

Each binder was assayed against recombinant IL-1RI (R&D Systems) (UniProt P14778) (assay: supernatant receptor binding assay, ELISA, competition with IL-1β).

binding | Binder
binds | B1
binds | B2
binds | B3

What follows are binders tested against recombinant IL-1RI (R&D Systems) (UniProt P14778) (assay: SPR off-rate screening, BIACORE 3000, IL-1RI coupled to a CM5 chip, dAb supernatant as analyte).

binding | Binder
binds | B4
binds | B5
binds | B6
binds | B7
